Results published in patent US12030888B2 (priority 2021, dated 2024).

Columns and labels:
[1] = general procedure: hybrid (solid and solution phase) peptide synthesis; 2-chlorotrityl chloride polystyrene resin (200-400 mesh), Fmoc-D-Thr(t-Bu) loaded, 0.802 mmol/g; HATU; settings: for conjugation yield: conjugation step; for isolated mass / isolated yield: whole synthesis; for isolated mass: scale 0.187 mmol; for isolated yield: scale of the general procedure 0.400 mmol
B. subtilis (ATCC 6633) = test: Confocal fluorescence microscopy of TAMRA-himastatin localization; type: cell-based, Bacillus subtilis; settings: 8 or 16 μg/mL, 30 min

Row | Compound | conjugation yield [1] [%] | isolated mass [1] [mg] | isolated yield [1] [%] | also measured
1 | TAMRA Himastatin Homodimer (−)-S17 | 9 | – | – | –
2 | CC(C)C[C@@H]1NC(=O)[C@H]2C[C@@H](O)CNN2C(=O)[C@H](C(C)C)OC(=O)[C@@H](C(C)C)NC(=O)[C@@H]2C[C@@]3(O)c4cc(-c5ccc6c(c5)[C@]5(O)C[C@H]7C(=O)N[C@H](C(C)C)C(=O)O[C@@H](C(C)C)C(=O)N8NC[C@H](O)C[C@@H]8C(=O)N[C@@H](CCCCNC(=O)c8ccc9c(c8)C(=O)OC98c9ccc(N(C)C)cc9Oc9cc(N(C)C)ccc98)C(=O)N[C@H]([C@H](C)O)C(=O)N7[C@@H]5N6)ccc4N[C@H]3N2C(=O)[C@@H]([C@H](C)O)NC1=O [(−)-25, TAMRA Himastatin Heterodimer] | – | – | – | cellular localization of fluorescent probe (B. subtilis (ATCC 6633)): intense septal staining; cellular localization of fluorescent probe (B. subtilis (ATCC 6633); listed as TAMRA-himastatin (−)-25): substantial accumulation in the bacterial envelope
3 | hexapeptide S11 | – | 94.4 | 38 | –
4 | Ent-Himastatin | 5 | – | – | –
5 | hexapeptide S5 | – | 94.4 | 37.6 | –
